In this assay the target is Mcl-1 (human (endogenous in HCT116 and LS174T)), Q07820. The assay is described as follows: co-IP; beads precoated with anti-Mcl-1 (anti-Gal4 as control), 500 ug of HCT116 or LS174T cell lysate, overnight at 4°C; lysis buffer pH 7.4, 20 mM Tris-HCl, 150 mM NaCl, 1 mM EDTA, 1% Triton X100; cells treated with sn38 and/or GSK690693 for 72 hr; blot for Noxa. The note with it: remark: other sources report otherwise.

These are yes or no findings as the source states them, for the method shown. In cells and extracts the contact can be indirect. Some entries that bind do so weakly or less than the wild type.

B1: Noxa, Q13794 1-54 (protein)
chain: MPGKKARKNAQPSPARAPAELEVECATQLRRFGDKLNFRQKLLNLISKLFCSGT
Consider B1, for which the binding result is listed as “binds”.

Values taken from paper PMC4791236.
